Results taken from paper PMC8346560.
Where a chain is given by its changes, count along the chain named. Names and notes keep the numbering of the source. Results are given in words; binding and its absence hold for the method and conditions named. For part of these data: In cells and extracts the contact can be indirect. Some binding calls cover weakened binding; strength is not graded here. For part of these data: Sequences can lack the tags named with a protein. Values belong to the binder of their own block, whether it stands above or below them.

What was measured:
Dpb4-HA (S. cerevisiae) = target: T1, Dpb4-HA (S. cerevisiae) (UniProt Q04603); assay: co-IP; total yeast protein extracts (50 mM HEPES pH 7.5, 300 mM NaCl, 20% glycerol); 2 h at 4 °C with Protein G-Dynabeads and anti-HA (12CA5); western blot with anti-HA or anti-Myc (9E10)
T1 sequence: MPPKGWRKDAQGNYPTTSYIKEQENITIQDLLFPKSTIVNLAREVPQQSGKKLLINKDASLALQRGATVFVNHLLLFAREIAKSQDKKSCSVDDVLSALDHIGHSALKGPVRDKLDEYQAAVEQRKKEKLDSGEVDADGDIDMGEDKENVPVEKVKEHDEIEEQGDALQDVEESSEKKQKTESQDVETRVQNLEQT

[1] = target: T2, Dpb4^A62S-HA (S. cerevisiae) (UniProt Q04603); assay: as above
T2 sequence: T1 sequence with A62S

[2] = target: T3, Dpb4^A62S with C-terminal 6xHis-Tag (S. cerevisiae) (UniProt Q04603); assay: tandem affinity co-purification (IMAC then Strep-Tactin); Dpb4-6xHis and Strep-tagged partner co-expressed in E. coli BL21 (DE3); extract purified by immobilized metal affinity chromatography, then on Strep-Tactin resin
T3 sequence: T1 sequence with A62S

[3] = target: T4, Dpb4 with C-terminal 6xHis-Tag (S. cerevisiae) (UniProt Q04603); assay: as above
T4 sequence: T1 sequence

Dls1-HA (S. cerevisiae) = target: T5, Dls1-HA (S. cerevisiae) (UniProt P40366); assay: co-IP; total yeast protein extracts (50 mM HEPES pH 7.5, 300 mM NaCl, 20% glycerol); 2 h at 4 °C with Protein G-Dynabeads and anti-HA (12CA5); western blot with anti-HA or anti-Myc (9E10)
T5 sequence: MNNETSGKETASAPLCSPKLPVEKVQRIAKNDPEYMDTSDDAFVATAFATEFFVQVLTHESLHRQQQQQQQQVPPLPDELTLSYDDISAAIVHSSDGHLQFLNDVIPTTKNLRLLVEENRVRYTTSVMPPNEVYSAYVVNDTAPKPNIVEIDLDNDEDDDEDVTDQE

[4] = target: T6, Dls1 with C-terminal Strep-Tag (S. cerevisiae) (UniProt P40366); assay: tandem affinity co-purification (IMAC then Strep-Tactin); Dpb4-6xHis and Strep-tagged partner co-expressed in E. coli BL21 (DE3); extract purified by immobilized metal affinity chromatography, then on Strep-Tactin resin
T6 sequence: T5 sequence

Rad9 (S. cerevisiae) = target: T7, Rad9 (S. cerevisiae) (UniProt P14737); assay: co-IP; coimmunoprecipitation of Dpb4 and Rad9, told only in the discussion; no figure or conditions given
T7 sequence: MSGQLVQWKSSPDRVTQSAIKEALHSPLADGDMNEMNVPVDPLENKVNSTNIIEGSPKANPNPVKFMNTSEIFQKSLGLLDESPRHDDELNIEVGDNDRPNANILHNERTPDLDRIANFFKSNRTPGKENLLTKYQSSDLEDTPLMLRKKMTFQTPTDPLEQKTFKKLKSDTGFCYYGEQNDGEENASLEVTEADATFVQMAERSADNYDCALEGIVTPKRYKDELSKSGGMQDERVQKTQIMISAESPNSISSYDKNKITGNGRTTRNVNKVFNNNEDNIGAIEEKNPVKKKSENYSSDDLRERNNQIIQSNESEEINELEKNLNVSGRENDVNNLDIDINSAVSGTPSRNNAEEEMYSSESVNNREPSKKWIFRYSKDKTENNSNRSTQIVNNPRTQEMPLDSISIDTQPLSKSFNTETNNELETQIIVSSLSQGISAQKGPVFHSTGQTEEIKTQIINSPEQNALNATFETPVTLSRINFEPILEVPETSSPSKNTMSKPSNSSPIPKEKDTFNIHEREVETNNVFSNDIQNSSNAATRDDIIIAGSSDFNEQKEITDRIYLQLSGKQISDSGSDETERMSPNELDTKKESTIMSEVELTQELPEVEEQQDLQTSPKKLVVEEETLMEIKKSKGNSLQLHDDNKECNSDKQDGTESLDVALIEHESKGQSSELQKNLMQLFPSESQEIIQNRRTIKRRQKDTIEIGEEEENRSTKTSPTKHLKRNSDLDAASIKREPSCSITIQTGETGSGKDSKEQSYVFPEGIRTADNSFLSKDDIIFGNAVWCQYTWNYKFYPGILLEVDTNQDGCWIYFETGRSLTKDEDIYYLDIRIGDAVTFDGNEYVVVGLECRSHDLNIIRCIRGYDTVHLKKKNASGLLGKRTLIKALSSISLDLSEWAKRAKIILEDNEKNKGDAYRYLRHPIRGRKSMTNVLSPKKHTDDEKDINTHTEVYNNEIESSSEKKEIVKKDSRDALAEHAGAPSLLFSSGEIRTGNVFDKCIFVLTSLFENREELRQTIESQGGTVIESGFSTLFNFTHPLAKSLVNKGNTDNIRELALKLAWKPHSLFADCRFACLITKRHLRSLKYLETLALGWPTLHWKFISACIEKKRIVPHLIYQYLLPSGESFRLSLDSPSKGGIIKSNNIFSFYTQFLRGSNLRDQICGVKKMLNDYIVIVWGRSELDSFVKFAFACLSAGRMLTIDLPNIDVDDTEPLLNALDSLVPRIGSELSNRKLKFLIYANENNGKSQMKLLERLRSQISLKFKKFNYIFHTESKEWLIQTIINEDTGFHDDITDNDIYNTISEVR

B1: Dpb3-Myc (protein, UniProt P27344 1-201)
chain: MSNLVKEKAPVFPISKVKKIAKCDPEYVITSNVAISATAFAAELFVQNLVEESLVLAQLNSKGKTSLRLSLNSIEECVEKRDNFRFLEDAIKQLKKNSALDKKRELNMQPGRSDQEVVIEEPELHEDDGVEEEEEEDEVSEEEEPVHNEELLDDSKDQQNDKSTRSVASLLSRFQYKSALDVGEHSDSSDIEVDHTKSTDP
binding (Dpb4-HA (S. cerevisiae)): binds
binding [1]: binds

B2: Dpb3 with C-terminal Strep-Tag (protein, UniProt P27344 1-201)
chain: B1 chain
binding [2]: binds
binding [3]: binds

B3: Dpb4-Myc (protein, UniProt Q04603 1-196)
chain: T1 sequence
binding (Dls1-HA (S. cerevisiae)): binds

B6: Dpb4 with C-terminal 6xHis-Tag (protein, UniProt Q04603 1-196)
chain: T1 sequence
binding [4]: binds

B7: Dpb4 (protein, UniProt Q04603 1-196)
chain: T1 sequence
binding (Rad9 (S. cerevisiae)): no binding

Other lines, results leading:

binding [4]: binds
B4: Dpb4^A62S with C-terminal 6xHis-Tag (protein, UniProt Q04603 1-196)
chain: T1 sequence with A62S

binding (Dls1-HA (S. cerevisiae)): binds
B5: Dpb4^A62S-Myc (protein, UniProt Q04603 1-196)
chain: T1 sequence with A62S
